Test results as given in the supplement of paper PMC6411743.
± gives the standard deviation of the averaged measurements. The list shows a part of the results.

Protein sequences, listed by entry. Tags and fused reporters are not part of them. Lines headed by an entry give the natural chain unless they say otherwise; changes in a name come on top.
UniProt Q7Z392: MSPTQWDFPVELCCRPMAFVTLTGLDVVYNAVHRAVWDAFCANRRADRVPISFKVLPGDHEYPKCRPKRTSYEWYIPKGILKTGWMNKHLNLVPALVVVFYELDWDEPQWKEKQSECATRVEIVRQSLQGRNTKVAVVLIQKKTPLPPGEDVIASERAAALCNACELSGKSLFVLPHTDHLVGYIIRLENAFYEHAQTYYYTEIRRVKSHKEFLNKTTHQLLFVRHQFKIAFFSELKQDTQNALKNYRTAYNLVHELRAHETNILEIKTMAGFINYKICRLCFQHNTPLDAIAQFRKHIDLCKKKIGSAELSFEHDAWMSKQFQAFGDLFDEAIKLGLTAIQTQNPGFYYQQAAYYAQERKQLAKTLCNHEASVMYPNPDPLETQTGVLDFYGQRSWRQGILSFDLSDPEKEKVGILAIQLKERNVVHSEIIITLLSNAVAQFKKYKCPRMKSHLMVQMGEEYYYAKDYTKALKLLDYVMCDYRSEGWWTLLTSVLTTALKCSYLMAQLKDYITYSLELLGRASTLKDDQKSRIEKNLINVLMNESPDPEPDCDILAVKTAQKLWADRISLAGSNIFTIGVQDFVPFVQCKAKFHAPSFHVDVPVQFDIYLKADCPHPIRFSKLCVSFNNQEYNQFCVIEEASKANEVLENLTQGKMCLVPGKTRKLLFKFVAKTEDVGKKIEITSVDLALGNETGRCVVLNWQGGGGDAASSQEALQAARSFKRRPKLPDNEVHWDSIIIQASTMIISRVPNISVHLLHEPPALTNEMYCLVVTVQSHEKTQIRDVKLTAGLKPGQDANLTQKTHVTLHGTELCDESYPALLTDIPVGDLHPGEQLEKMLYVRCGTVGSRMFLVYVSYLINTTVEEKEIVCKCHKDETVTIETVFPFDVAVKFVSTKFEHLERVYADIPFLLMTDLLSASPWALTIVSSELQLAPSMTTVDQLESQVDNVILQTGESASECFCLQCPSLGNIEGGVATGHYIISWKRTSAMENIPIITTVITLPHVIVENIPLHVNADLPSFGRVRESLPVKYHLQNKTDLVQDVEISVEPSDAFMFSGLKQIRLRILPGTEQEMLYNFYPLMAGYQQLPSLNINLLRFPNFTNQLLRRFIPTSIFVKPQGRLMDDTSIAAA
UniProt Q6PIJ6: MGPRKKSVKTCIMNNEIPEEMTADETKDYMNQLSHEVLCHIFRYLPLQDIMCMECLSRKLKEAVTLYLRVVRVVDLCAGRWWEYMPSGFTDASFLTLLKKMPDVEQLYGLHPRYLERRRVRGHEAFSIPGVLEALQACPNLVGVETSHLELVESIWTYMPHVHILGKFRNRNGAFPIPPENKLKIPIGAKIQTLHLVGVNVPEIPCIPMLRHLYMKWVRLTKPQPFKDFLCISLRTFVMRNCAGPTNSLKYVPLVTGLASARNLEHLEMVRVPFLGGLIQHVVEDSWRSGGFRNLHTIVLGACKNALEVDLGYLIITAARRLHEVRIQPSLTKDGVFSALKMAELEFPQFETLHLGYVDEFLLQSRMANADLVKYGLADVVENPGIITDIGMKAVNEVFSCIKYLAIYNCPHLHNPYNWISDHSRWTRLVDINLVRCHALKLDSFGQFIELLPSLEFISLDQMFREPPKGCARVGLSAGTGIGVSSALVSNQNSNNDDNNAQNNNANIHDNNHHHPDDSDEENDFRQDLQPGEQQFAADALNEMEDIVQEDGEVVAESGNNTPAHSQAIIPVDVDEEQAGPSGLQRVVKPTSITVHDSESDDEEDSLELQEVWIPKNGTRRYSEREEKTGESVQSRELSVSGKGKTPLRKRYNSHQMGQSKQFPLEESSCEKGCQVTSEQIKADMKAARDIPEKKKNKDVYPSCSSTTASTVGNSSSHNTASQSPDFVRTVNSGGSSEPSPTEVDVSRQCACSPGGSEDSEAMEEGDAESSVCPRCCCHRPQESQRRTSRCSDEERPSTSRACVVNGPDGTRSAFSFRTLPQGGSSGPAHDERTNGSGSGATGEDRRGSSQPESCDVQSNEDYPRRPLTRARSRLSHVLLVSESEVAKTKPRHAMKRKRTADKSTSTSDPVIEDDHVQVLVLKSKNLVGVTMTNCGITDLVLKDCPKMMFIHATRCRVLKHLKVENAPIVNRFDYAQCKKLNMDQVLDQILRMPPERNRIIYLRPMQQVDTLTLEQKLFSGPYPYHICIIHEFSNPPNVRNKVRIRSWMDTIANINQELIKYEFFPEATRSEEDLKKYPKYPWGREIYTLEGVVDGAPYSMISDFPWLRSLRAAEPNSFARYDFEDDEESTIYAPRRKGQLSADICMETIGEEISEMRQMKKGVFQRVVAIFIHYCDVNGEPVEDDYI
UniProt Q6ZNJ1: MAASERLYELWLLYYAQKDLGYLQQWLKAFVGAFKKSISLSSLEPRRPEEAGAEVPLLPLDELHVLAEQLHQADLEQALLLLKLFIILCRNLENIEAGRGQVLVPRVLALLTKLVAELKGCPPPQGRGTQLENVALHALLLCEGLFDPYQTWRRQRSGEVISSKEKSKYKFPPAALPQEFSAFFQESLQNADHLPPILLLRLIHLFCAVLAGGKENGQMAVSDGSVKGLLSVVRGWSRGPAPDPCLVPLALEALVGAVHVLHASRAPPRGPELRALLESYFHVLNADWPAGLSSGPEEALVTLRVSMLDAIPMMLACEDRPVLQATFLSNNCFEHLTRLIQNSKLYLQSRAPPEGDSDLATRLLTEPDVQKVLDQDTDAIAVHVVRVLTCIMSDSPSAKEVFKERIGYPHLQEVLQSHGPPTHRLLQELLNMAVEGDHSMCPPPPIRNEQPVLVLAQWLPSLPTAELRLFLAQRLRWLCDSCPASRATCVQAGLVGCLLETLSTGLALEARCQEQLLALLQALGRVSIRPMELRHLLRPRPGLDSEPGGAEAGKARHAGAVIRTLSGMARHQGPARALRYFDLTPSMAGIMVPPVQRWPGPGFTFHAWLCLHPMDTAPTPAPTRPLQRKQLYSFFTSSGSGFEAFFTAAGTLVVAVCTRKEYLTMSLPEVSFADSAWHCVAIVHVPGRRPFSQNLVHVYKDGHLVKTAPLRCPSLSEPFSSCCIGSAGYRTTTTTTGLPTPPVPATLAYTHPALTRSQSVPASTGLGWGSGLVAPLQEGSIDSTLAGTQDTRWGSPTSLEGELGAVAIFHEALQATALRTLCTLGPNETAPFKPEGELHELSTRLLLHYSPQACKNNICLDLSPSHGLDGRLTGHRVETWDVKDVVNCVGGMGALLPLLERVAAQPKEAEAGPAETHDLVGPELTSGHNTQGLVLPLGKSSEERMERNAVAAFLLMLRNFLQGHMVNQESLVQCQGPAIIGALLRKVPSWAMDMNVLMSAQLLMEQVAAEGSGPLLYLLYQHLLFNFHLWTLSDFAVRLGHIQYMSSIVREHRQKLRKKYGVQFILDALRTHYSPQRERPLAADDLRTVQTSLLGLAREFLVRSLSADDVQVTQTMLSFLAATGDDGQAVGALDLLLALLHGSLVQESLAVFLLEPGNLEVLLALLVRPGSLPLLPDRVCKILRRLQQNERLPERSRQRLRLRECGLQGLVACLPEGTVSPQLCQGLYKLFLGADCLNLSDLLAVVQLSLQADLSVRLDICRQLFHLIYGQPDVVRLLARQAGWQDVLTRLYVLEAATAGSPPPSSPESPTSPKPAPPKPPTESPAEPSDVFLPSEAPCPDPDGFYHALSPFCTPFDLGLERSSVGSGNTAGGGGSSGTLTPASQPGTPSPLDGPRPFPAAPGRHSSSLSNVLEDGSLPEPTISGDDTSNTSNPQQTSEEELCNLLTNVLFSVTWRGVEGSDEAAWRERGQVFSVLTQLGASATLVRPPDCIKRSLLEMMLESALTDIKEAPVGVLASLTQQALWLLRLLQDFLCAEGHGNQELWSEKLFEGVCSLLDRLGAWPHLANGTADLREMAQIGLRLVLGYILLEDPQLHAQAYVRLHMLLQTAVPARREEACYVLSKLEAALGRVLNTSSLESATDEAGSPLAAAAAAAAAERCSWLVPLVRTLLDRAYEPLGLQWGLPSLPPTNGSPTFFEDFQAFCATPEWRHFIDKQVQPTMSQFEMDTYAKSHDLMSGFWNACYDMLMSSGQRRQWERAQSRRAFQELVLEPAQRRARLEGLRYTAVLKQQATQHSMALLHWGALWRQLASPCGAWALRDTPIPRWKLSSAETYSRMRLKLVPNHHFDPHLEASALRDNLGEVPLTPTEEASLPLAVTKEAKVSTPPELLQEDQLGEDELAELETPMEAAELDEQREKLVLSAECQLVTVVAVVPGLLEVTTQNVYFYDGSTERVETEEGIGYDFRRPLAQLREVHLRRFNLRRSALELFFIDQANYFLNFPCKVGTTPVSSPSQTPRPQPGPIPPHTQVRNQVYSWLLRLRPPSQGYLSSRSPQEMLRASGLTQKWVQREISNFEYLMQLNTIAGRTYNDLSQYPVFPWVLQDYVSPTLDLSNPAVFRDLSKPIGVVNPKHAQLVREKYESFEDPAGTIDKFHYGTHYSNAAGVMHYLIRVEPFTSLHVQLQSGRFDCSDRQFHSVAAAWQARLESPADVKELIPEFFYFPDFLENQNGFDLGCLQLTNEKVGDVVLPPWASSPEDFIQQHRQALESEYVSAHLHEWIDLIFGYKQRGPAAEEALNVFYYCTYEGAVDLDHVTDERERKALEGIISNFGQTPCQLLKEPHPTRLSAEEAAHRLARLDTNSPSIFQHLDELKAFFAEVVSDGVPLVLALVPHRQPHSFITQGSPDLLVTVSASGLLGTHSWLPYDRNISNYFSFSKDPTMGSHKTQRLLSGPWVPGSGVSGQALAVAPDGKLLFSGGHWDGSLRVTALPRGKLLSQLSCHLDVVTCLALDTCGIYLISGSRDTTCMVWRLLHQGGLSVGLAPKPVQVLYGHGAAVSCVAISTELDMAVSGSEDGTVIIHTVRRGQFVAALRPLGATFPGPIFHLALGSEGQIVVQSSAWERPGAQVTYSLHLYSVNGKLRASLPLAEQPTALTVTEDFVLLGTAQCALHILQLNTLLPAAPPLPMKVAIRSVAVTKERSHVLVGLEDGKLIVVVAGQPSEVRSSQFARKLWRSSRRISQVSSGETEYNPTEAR
UniProt Q7L1T6: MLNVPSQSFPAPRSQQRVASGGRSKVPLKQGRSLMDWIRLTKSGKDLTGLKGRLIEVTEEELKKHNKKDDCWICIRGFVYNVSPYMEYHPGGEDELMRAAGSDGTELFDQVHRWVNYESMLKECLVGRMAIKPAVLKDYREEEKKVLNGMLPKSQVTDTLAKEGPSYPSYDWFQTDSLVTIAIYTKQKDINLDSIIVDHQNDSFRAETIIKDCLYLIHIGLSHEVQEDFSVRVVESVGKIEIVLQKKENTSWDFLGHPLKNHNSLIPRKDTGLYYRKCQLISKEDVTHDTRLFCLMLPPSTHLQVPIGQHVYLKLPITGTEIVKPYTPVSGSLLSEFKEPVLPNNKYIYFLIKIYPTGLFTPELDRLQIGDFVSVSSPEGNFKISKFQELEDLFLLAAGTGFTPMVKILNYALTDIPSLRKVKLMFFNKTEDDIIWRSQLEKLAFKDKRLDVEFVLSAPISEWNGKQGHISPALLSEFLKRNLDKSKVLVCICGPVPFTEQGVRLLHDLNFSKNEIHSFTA
UniProt Q6FIF0: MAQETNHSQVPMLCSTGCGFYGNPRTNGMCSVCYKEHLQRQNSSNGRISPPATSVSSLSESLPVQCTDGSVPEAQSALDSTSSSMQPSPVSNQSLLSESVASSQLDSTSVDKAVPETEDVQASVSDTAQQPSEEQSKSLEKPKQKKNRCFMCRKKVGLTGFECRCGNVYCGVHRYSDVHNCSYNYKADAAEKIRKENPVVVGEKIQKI
UniProt Q71RC2, whole entry: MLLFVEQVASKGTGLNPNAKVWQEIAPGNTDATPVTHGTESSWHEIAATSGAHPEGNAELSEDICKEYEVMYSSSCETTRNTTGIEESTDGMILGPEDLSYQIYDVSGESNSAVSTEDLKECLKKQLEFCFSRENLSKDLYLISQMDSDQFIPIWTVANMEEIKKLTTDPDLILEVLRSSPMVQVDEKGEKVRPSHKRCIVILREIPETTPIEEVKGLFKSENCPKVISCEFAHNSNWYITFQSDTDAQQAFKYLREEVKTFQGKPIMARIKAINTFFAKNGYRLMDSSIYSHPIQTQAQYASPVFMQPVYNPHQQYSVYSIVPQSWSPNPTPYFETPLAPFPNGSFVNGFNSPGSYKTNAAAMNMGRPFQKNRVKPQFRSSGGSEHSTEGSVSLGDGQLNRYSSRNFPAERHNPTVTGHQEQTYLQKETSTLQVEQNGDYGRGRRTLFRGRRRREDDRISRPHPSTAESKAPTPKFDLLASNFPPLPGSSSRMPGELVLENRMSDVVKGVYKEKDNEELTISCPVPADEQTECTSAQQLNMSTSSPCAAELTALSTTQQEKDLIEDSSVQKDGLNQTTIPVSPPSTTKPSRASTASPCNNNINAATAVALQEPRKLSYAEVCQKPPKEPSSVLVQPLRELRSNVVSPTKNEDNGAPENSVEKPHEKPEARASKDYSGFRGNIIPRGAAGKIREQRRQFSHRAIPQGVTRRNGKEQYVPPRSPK

Compound: Nc1nc2c(ncn2[C@@H]2O[C@H](COP(=O)(O)OP(=O)(O)OP(=O)(O)O)[C@@H](O)[C@H]2O)c(=O)[nH]1 [guanosine triphosphate]
Assay: NP40-soluble protein abundance relative to vehicle (solubility fold change) (ratio); higher = more soluble protein in presence of GTP
Procedure, shortened: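 Crude Jurkat lysate, prepared by Dounce homogenisation, was exposed to eight concentrations from 0.1 to 10 mM for 10 min at room temperature and then 3 min at 37 °C. Solubilisation used 0.8% NP40 with benzonase for 60 min at 4 °C, followed by ultracentrifugation and TMT labelling of the supernatant for LC-MS/MS. After vsn normalisation of intensities, each value is the fold change against the detergent-processed vehicle within each replicate, across three independent experiments.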

Row | Target | NP40-soluble protein abundance (concentration: 0.1mM) | NP40-soluble protein abundance (concentration: 0.5mM) | NP40-soluble protein abundance (concentration: 1mM) | NP40-soluble protein abundance (concentration: 2mM) | NP40-soluble protein abundance (concentration: 4mM) | NP40-soluble protein abundance (concentration: 6mM) | NP40-soluble protein abundance (concentration: 8mM) | NP40-soluble protein abundance (concentration: 10mM)
1 | MEPCE (UniProt Q7L2J0) | 1.02 ± 0.035 | 1.09 ± 0.065 | 1.04 ± 0.019 | 1.07 ± 0.031 | 1.06 ± 0.03 | 1.17 ± 0.057 | 1.2 ± 0.081 | 1.27 ± 0.095
2 | ALKBH5 (UniProt Q6P6C2) | 0.979 ± 0.028 | 1.19 ± 0.069 | 1.2 ± 0.043 | 1.3 ± 0.13 | 1.26 ± 0.078 | 1.37 ± 0.11 | 1.39 ± 0.054 | 1.47 ± 0.081
3 | UniProt Q7Z460-4 | 0.99 ± 0.059 | 1.02 ± 0.065 | 1.03 ± 0.059 | 1.03 ± 0.072 | 1.02 ± 0.054 | 1.03 ± 0.064 | 1.04 ± 0.056 | 1.04 ± 0.075
4 | UniProt Q7Z392 and related entries | 1.13 ± 0.18 | 1.14 ± 0.23 | 1.11 ± 0.14 | 1.12 ± 0.21 | 1.11 ± 0.15 | 1.05 ± 0.19 | 1.09 ± 0.15 | 1.02 ± 0.16
5 | FBXO38 (UniProt Q6PIJ6) | 1.07 ± 0.038 | 1.09 ± 0.04 | 1.09 ± 0.053 | 1.1 ± 0.056 | 1.09 ± 0.028 | 1.08 ± 0.055 | 1.14 ± 0.11 | 1.11 ± 0.097
6 | PGM2L1 (UniProt Q6PCE3) | 1.09 ± 0.058 | 1.08 ± 0.11 | 0.949 ± 0.025 | 0.978 ± 0.12 | 0.951 ± 0.085 | 0.916 ± 0.094 | 0.862 ± 0.084 | 0.871 ± 0.12
7 | UBE2Q1 (UniProt Q7Z7E8) | 0.968 ± 0.062 | 0.953 ± 0.044 | 0.929 ± 0.064 | 0.922 ± 0.048 | 0.88 ± 0.055 | 0.912 ± 0.077 | 0.874 ± 0.071 | 0.886 ± 0.056
8 | TAOK1 (UniProt Q7L7X3) | 1.04 ± 0.087 | 1.07 ± 0.13 | 0.975 ± 0.059 | 1.01 ± 0.13 | 1.04 ± 0.098 | 0.949 ± 0.11 | 0.965 ± 0.055 | 0.966 ± 0.073
9 | TTC37 (UniProt Q6PGP7) | 0.91 ± 0.12 | 0.973 ± 0.068 | 0.971 ± 0.1 | 0.985 ± 0.15 | 0.955 ± 0.12 | 0.975 ± 0.13 | 0.949 ± 0.17 | 0.981 ± 0.025
10 | UniProt Q75QN2 and related entries | 1.18 ± 0.17 | 1.17 ± 0.12 | 1.16 ± 0.055 | 1.24 ± 0.17 | 1.35 ± 0.24 | 1.25 ± 0.16 | 1.23 ± 0.15 | 1.18 ± 0.091
11 | UniProt Q7Z7A1 and related entries | 0.971 ± 0.11 | 0.957 ± 0.12 | 0.934 ± 0.069 | 0.898 ± 0.057 | 0.956 ± 0.14 | 0.937 ± 0.096 | 0.989 ± 0.11 | 0.912 ± 0.081
12 | AACS (UniProt Q86V21) | 0.996 ± 0.085 | 0.995 ± 0.037 | 0.874 ± 0.05 | 0.934 ± 0.028 | 0.923 ± 0.061 | 0.862 ± 0.049 | 0.819 ± 0.097 | 0.867 ± 0.11
13 | UniProt Q7L0Y3 | 1.04 ± 0.02 | 1.01 ± 0.02 | 0.985 ± 0.02 | 1.02 ± 0.045 | 1.06 ± 0.041 | 1.066 ± 0.00052 | 1.06 ± 0.05 | 1.05 ± 0.048
14 | UniProt Q6ZNJ1 and related entries | 1.08 ± 0.1 | 1.09 ± 0.14 | 1 ± 0.099 | 1.06 ± 0.16 | 1.1 ± 0.12 | 0.983 ± 0.15 | 1.01 ± 0.12 | 0.965 ± 0.11
15 | RCSD1 (UniProt Q6JBY9) | 1.05 ± 0.051 | 1.01 ± 0.062 | 1.01 ± 0.11 | 0.857 ± 0.11 | 0.854 ± 0.12 | 0.828 ± 0.11 | 0.954 ± 0.1 | 0.894 ± 0.12
16 | ZCCHC8 (UniProt Q6NZY4) | 1 ± 0.031 | 1.03 ± 0.026 | 1.12 ± 0.072 | 1.15 ± 0.092 | 1.21 ± 0.13 | 1.25 ± 0.15 | 1.31 ± 0.23 | 1.32 ± 0.27
17 | UniProt Q7Z406 and related entries | 0.995 ± 0.065 | 1.04 ± 0.13 | 0.902 ± 0.092 | 0.954 ± 0.11 | 0.97 ± 0.051 | 0.959 ± 0.044 | 0.922 ± 0.069 | 0.819 ± 0.038
18 | UniProt Q86W56 and related entries | 1.06 ± 0.09 | 1.07 ± 0.11 | 1.01 ± 0.081 | 1.02 ± 0.094 | 0.994 ± 0.071 | 1 ± 0.085 | 1.02 ± 0.085 | 0.998 ± 0.073
19 | UniProt Q86V59 and related entries | 1.04 ± 0.046 | 0.975 ± 0.041 | 1.05 ± 0.059 | 1.09 ± 0.051 | 1.12 ± 0.14 | 1.1 ± 0.15 | 1.14 ± 0.05 | 1.2 ± 0.19
20 | CYB5R4 (UniProt Q7L1T6) | 1.02 ± 0.058 | 1.05 ± 0.082 | 0.97 ± 0.079 | 0.98 ± 0.038 | 0.985 ± 0.032 | 0.933 ± 0.039 | 0.934 ± 0.082 | 0.91 ± 0.047
21 | UniProt Q6FIF0 and related entries | 0.95 ± 0.067 | 0.931 ± 0.084 | 1 ± 0.044 | 0.986 ± 0.082 | 0.969 ± 0.12 | 0.944 ± 0.099 | 0.967 ± 0.12 | 1 ± 0.054
22 | UniProt Q641Q2 and related entries | 1 ± 0.11 | 0.945 ± 0.061 | 1.02 ± 0.031 | 1.05 ± 0.18 | 0.951 ± 0.12 | 0.921 ± 0.076 | 1.07 ± 0.073 | 1.03 ± 0.16
23 | ZNF318 (UniProt Q5VUA4) | 1.08 ± 0.083 | 1.07 ± 0.071 | 1.19 ± 0.13 | 1.2 ± 0.057 | 1.24 ± 0.17 | 1.25 ± 0.12 | 1.33 ± 0.18 | 1.22 ± 0.21
24 | UniProt Q7Z7F0 and related entries | 0.933 ± 0.019 | 0.93 ± 0.036 | 0.968 ± 0.038 | 0.939 ± 0.1 | 0.913 ± 0.065 | 0.915 ± 0.098 | 0.941 ± 0.077 | 0.941 ± 0.053
25 | UniProt Q71RC2 and related entries | 1.04 ± 0.056 | 1.04 ± 0.038 | 1.13 ± 0.021 | 1.19 ± 0.059 | 1.23 ± 0.04 | 1.29 ± 0.015 | 1.37 ± 0.07 | 1.46 ± 0.12
26 | UniProt Q6P1N0 and related entries | 1.01 ± 0.062 | 0.997 ± 0.052 | 0.977 ± 0.037 | 0.969 ± 0.05 | 0.973 ± 0.039 | 0.971 ± 0.034 | 0.962 ± 0.033 | 0.968 ± 0.057
27 | UniProt Q5VW36 | 0.906 ± 0.12 | 0.82 ± 0.12 | 0.7823 ± 0.0067 | 0.849 ± 0.12 | 0.893 ± 0.04 | 0.918 ± 0.13 | 0.933 ± 0.1 | 0.984 ± 0.15
28 | UniProt Q6NXT6 and related entries | 1.01 ± 0.035 | 0.994 ± 0.044 | 0.983 ± 0.054 | 0.956 ± 0.045 | 0.971 ± 0.066 | 0.951 ± 0.053 | 0.999 ± 0.06 | 0.948 ± 0.079
29 | UniProt Q658Y4 and related entries | 1.13 ± 0.12 | 1.1 ± 0.13 | 1 ± 0.042 | 1.07 ± 0.16 | 1.06 ± 0.13 | 1.04 ± 0.13 | 1.05 ± 0.089 | 1.01 ± 0.1
30 | UniProt Q6PJT7 and related entries | 0.964 ± 0.031 | 0.958 ± 0.047 | 1.03 ± 0.028 | 1.04 ± 0.065 | 1.1 ± 0.068 | 1.12 ± 0.04 | 1.17 ± 0.081 | 1.21 ± 0.091

Pulled one by one from the entries so far, 2 records:
Row | Target | NP40-soluble protein abundance (concentration: 0.1mM) | NP40-soluble protein abundance (concentration: 0.5mM) | NP40-soluble protein abundance (concentration: 1mM) | NP40-soluble protein abundance (concentration: 2mM) | NP40-soluble protein abundance (concentration: 4mM) | NP40-soluble protein abundance (concentration: 6mM) | NP40-soluble protein abundance (concentration: 8mM) | NP40-soluble protein abundance (concentration: 10mM)
26 | UniProt Q6P1N0 and related entries | 1.01 ± 0.062 | 0.997 ± 0.052 | 0.977 ± 0.037 | 0.969 ± 0.05 | 0.973 ± 0.039 | 0.971 ± 0.034 | 0.962 ± 0.033 | 0.968 ± 0.057
4 | UniProt Q7Z392 and related entries | 1.13 ± 0.18 | 1.14 ± 0.23 | 1.11 ± 0.14 | 1.12 ± 0.21 | 1.11 ± 0.15 | 1.05 ± 0.19 | 1.09 ± 0.15 | 1.02 ± 0.16
